Molecules are shown by their SMILES. The list does not hold the whole screen: it is rich in T/C values a quarter to a half above the control, in often repeated tests (any T/C) and in doses without a T/C. Other doses and runs of a compound stand elsewhere. T/C: endpoint of the treated group in % of that of the vehicle group. Some entries give survivors of the animals treated and no T/C: the source holds a T/C of zero for them, seemingly a mark for toxic or unscored doses. Some survivor counts are full or nearly so, which does not show that the dose was tolerated: survival well below the control is almost never listed, so the zero probably covers shortened survival too. Counts of survivors are from the toxicity check (mostly the fifth day) where no day follows; animals may have died later. Schedule codes are those of the source, taken here to give the interval after Q, in days (D) or hours (H), and the number of doses after X. Some entries hold several experiments; their values stand side by side, smallest first. Some schedule codes hold Z or #, which are not explained here. For survival time, the PubChem record calls one and a half times the control and up active, and a quarter to a half above the control has no call in these data; cut-offs in other NCI protocols can differ.

In this assay the test system is BDF1 mice, P288 leukemia ip, survival T/C. Nature of the assay: NCI In Vivo Anticancer Drug Screen. Data for tumor model P288 Lymphocytic Leukemia (intraperitoneal) in B6D2F1 (BDF1) mice. The settings on record: T/C endpoint: survival time, mean or median, higher T/C = longer survival. The method, then: The antitumor activity of compounds was measured in mice bearing transplantable tumors. Survival or tumor size were measured and the results are expressed as the measurement made in the treated group (T) divided by the measurement made in the vehicle treated control group (C). The tumor model used in this assay is P288 Lymphocytic Leukemia (intraperitoneal) in B6D2F1 (BDF1) mice

Setting [1] is: dose: 25.0 mg/kg/injection, schedule: Q01DX Z (ip), vehicle: carboxymethylcellulose (CMC).
[2] abbreviates: dose: 100.0 mg/kg/injection, schedule: Q01DX Z (ip), vehicle: carboxymethylcellulose (CMC).
Where [3] appears, read: dose: 200.0 mg/kg/injection, schedule: Q01DX Z (ip), vehicle: carboxymethylcellulose (CMC).
Where [4] appears, read: dose: 4.0 mg/kg/injection, schedule: Q01DX010 (ip), vehicle: saline.
Where [5] appears, read: dose: 8.0 mg/kg/injection, schedule: Q01DX010 (ip), vehicle: saline.
Setting [6] is: dose: 62.5 mg/kg/injection, schedule: Q01DX010 (ip), vehicle: saline.
Setting [7] is: dose: 125.0 mg/kg/injection, schedule: Q01DX010 (ip), vehicle: saline.
[8] abbreviates: dose: 50.0 mg/kg/injection, schedule: Q01DX Z (ip), vehicle: carboxymethylcellulose (CMC).

Turning to `C1CN1c1nc(N2CC2)nc(N2CC2)n1`, the survivor count was 6 of 6 (dose: 0.13 mg/kg/injection, schedule: Q01DX010 (ip), vehicle: saline) and 5 of 6 (dose: 1.0 mg/kg/injection, schedule: Q01DX010 (ip), vehicle: saline).

In the case of `N#CCSc1ncnc2nc[nH]c12`, the survivor count (dose: 15.0 mg/kg/injection, schedule: Q01DX010 (ip), vehicle: saline) is listed as 6 of 6; the survivor count under setting [1] is reported as 6 of 6; the survivor count (dose: 30.0 mg/kg/injection, schedule: Q01DX010 (ip), vehicle: saline) was 6 of 6; the survivor count (dose: 60.0 mg/kg/injection, schedule: Q01DX010 (ip), vehicle: saline) is 6 of 6; the survivor count under setting [2] was 3 of 6 and 6 of 6; the survivor count (dose: 120.0 mg/kg/injection, schedule: Q01DX010 (ip), vehicle: saline) was 6 of 6. The survivor count is recorded as 2 of 6 under setting [3] and 3 of 6 (dose: 240.0 mg/kg/injection, schedule: Q01DX010 (ip), vehicle: saline).

On to `CSCS(=O)C[C@H](CO)NC(=O)/C=C/c1c(C)[nH]c(=O)[nH]c1=O` (some centres not stated), for which the survivor count (dose: 2.0 mg/kg/injection, schedule: Q01DX Z (ip), vehicle: saline) is recorded as 2 of 6.

Take `CC(CCC(C)OS(C)(=O)=O)OS(C)(=O)=O` (configuration not stated): the survivor count reads like this: (dose: 0.5 mg/kg/injection, schedule: Q01DX Z (ip), vehicle: carboxymethylcellulose (CMC)) 6 of 6; (dose: 2.0 mg/kg/injection, schedule: Q01DX010 (ip), vehicle: saline) 6 of 6; under setting [4], 6 of 6; (dose: 5.0 mg/kg/injection, schedule: Q01DX Z (ip), vehicle: carboxymethylcellulose (CMC)) 4 of 6; under setting [5], 6 of 6; (dose: 10.0 mg/kg/injection, schedule: Q01DX Z (ip), vehicle: carboxymethylcellulose (CMC)) 6 of 6. For the same molecule, the survivor count by setting is: (dose: 20.0 mg/kg/injection, schedule: Q01DX Z (ip), vehicle: carboxymethylcellulose (CMC)) 6 of 6; (dose: 40.0 mg/kg/injection, schedule: Q01DX Z (ip), vehicle: carboxymethylcellulose (CMC)) 1 of 6.

With `CCN(CCNc1ccc(C)c2sc3cc(Cl)ccc3c(=O)c12)CC(C)O` (configuration not stated), the T/C under setting [6] was 125 % of control and the T/C under setting [7] is 125 % of control. In addition, the survivor count (dose: 500.0 mg/kg/injection, schedule: Q01DX010 (ip), vehicle: saline) is given as 4 of 6.

In the case of `N=[N+]=CC(=O)OCC(N)C(=O)O` (configuration not stated), the T/C (dose: 25.0 mg/kg/injection, schedule: Q01DX010 (ip), vehicle: saline) is 133 % of control.

In the case of `CN(C)c1nc(N(C)C)nc(N(C)C)n1`, the survivor count reads like this: (dose: 18.8 mg/kg/injection, schedule: Q01DX010 (ip), vehicle: saline) 6 of 6; (dose: 37.5 mg/kg/injection, schedule: Q01DX010 (ip), vehicle: saline) 6 of 6; (dose: 62.5 mg/kg/injection, schedule: Q01DX Z (ip), vehicle: carboxymethylcellulose (CMC)) 6 of 6; (dose: 75.0 mg/kg/injection, schedule: Q01DX010 (ip), vehicle: saline) 6 of 6; (dose: 150.0 mg/kg/injection, schedule: Q01DX010 (ip), vehicle: saline) 5 of 6 and 6 of 6; (dose: 250.0 mg/kg/injection, schedule: Q01DX Z (ip), vehicle: carboxymethylcellulose (CMC)) 4 of 6. In addition, the survivor count (dose: 500.0 mg/kg/injection, schedule: Q01DX Z (ip), vehicle: carboxymethylcellulose (CMC)) is 1 of 6.

Take `O=NN(CCCl)C(=O)NCCCl`: the T/C is, setting by setting: (dose: 4.0 mg/kg/injection, schedule: Q01DX Z (ip), vehicle: saline) 134 % of control; (dose: 8.0 mg/kg/injection, schedule: Q01DX Z (ip), vehicle: saline) 140 % of control. Moreover, the survivor count is reported as 5 of 6 (dose: 50.0 mg/kg/injection, schedule: Q01DX010 (ip), vehicle: saline) and 6 of 6 (dose: 128.0 mg/kg/injection, schedule: Q01DX Z (ip), vehicle: saline).

For `CO[C@@H]1[C@@H](OC2OC(C)C(OC3CC(C)(O)C(OC(=O)CC(C)C)C(C)O3)C(N(C)C)C2O)[C@@H](CC=O)C[C@@H](C)C(=O)/C=C/C2O[C@H]2C[C@@H](C)OC(=O)C[C@H]1OC(C)=O` (some centres not stated), where the note is “dose: 400.0 mg/kg/injection, schedule: Q01DX010 (ip), vehicle: saline”, the T/C was 125 % of control.

For the molecule `CC(=O)Nc1ccc2nc3ccc(NC(C)=O)cc3[n+](-c3ccccc3)c2c1`, the T/C (dose: 12.5 mg/kg/injection, schedule: Q01DX Z (ip), vehicle: carboxymethylcellulose (CMC)) was 130 % of control; the T/C under setting [1] is 136 and 137 % of control; the T/C under setting [8] was 138 % of control; the T/C (dose: 100.0 mg/kg/injection, schedule: Q01DX010 (ip), vehicle: saline) is 125 % of control; the T/C under setting [2] was 142 % of control; the T/C (dose: 200.0 mg/kg/injection, schedule: Q01DX010 (ip), vehicle: saline) was 125 % of control. Further, the T/C under setting [3] was 142 % of control. Besides, the survivor count is, setting by setting: under setting [1], 6 of 6; under setting [8], 6 of 6; under setting [2], 6 of 6; under setting [3], 4 of 6; (dose: 800.0 mg/kg/injection, schedule: Q01DX Z (ip), vehicle: carboxymethylcellulose (CMC)) 4 of 6.

Turning to `CN1CC[C@]23c4c5ccc(O)c4O[C@H]2C(=O)CC[C@H]3[C@H]1C5`, the survivor count under setting [4] is given as 6 of 6; the survivor count under setting [5] was 6 of 6; the survivor count (dose: 16.0 mg/kg/injection, schedule: Q01DX010 (ip), vehicle: saline) is listed as 6 of 6; the survivor count (dose: 32.0 mg/kg/injection, schedule: Q01DX010 (ip), vehicle: saline) is given as 6 of 6.

Consider `COc1ccc2c(c1OC)C(=O)O[C@@H]2[C@H]1c2c(cc3c(c2OC)OCO3)CCN1C`, for which the T/C (dose: 15.6 mg/kg/injection, schedule: Q01DX010 (ip), vehicle: saline) is 125 % of control. The survivor count by setting is: (dose: 31.3 mg/kg/injection, schedule: Q01DX010 (ip), vehicle: saline) 6 of 6; under setting [6], 6 of 6; under setting [7], 6 of 6; (dose: 250.0 mg/kg/injection, schedule: Q01DX010 (ip), vehicle: saline) 6 of 6.

As to `CCN(CC)C(=S)S`, the survivor count by setting is: (dose: 250.0 mg/kg/injection, schedule: Q01DX Z (ip), vehicle: other) 3 of 6; (dose: 500.0 mg/kg/injection, schedule: Q01DX Z (ip), vehicle: other) 5 of 6; (dose: 2000.0 mg/kg/injection, schedule: Q01DX Z (ip), vehicle: other) 2 of 6. Further, the T/C (dose: 1000.0 mg/kg/injection, schedule: Q01DX Z (ip), vehicle: other) is 125 % of control.

On to `C=C1C[C@H]2[C@@H]3C=C(C)C4=CC(=O)CC[C@]4(C)[C@H]3CC[C@]2(C)[C@@]1(OC(C)=O)C(C)=O`, for which the survivor count runs as follows: (dose: 250.0 mg/kg/injection, schedule: Q01DX010 (sc), vehicle: steroid suspending solution) 6 of 6; (dose: 500.0 mg/kg/injection, schedule: Q01DX010 (sc), vehicle: steroid suspending solution) 6 of 6.

The values are drawn from PubChem BioAssay AID216 (DTP/NCI, 2004).
